# Source: PubChem BioAssay AID493014 (National Center for Advancing Translational Sciences (NCATS), 2011)
# In all, about 340,000 compounds went through this assay and about 170 (0.05%) were called active. Inconclusive results, whose numbers are uncertain, are shown with a selection of clear calls. Calls come from the whole dose curve; as a rule, active = well fitted inhibition curve with a large enough effect in the signal ratio, with a control signal flat (not every such curve was filed as active); inconclusive = small, poorly fitted or top-dose-only effect, or effect the other way, or a change in a side signal; inactive = flat fitted curve, though single readings scatter; the % refers to the signal ratio. Potencies beside an inconclusive call are fits to weak or partial responses and may not hold up.
# Assay: qHTS Assay to Find Inhibitors of Chronic Active B-Cell Receptor Signaling;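 for activity change, negative = inhibition: plate controls were basal doxycycline-induced cells for no effect and cells given 10 µM MG132 for full effect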
# Conditions: ABC-DLBCL IkBa-CBG/CBR reporter, luminescence ratio (green luciferase fused to IkBa over red control in TMD8 lymphoma cells), 4 h; activity change, negative = inhibition: at 46.1 µM (top of the series)
# Procedure, shortened: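 TMD8 human ABC-DLBCL cells with doxycycline-inducible IκBα–green luciferase fusion and unfused red luciferase, in 0.5% FBS medium; compounds up to 46 uM, 4 h at 37C. Green/red luminescence ratio, filter-overlap corrected, fitted to concentration-response curves.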
# Potency is the fitted concentration of half-maximal effect.
Compound,"activity change, negative = inhibition",Potency
Cc1[nH]c(=O)c(C#N)c2c1COC(C)(C)C2,inactive,
Clc1ccc(CNCc2cccs2)cc1Cl,inconclusive: 4.17%,
O=C(NCc1ccccn1)c1ccc(NS(=O)(=O)c2cccc(Cl)c2)cc1,inconclusive: -3%,
CCC(=O)c1ccc(OCC(=O)NCC2COc3ccccc3O2)cc1 (centres undefined),inconclusive: -0.723%,
O=C(CSC1=Nc2ccccc2C2=NC(c3ccccc3)C(=O)N12)NC1CCCCC1 (centres undefined),inconclusive: 8.02%,
COc1cccc(NC(=O)N2CCN3CCCCC3C2)c1 (centres undefined),inconclusive: -18.6%,
CCC1CCCCN1C(=O)CSc1nnc(CNC(=O)COc2ccc(Cl)cc2)o1 (centres undefined),inconclusive: -0.809%,
Cc1ccc2oc(=O)c(-c3ccc(O)cc3)c(C)c2c1,inconclusive: -16.7%,
CC(C)CN1C(=O)C(=O)N(CC(=O)N(C)CC(=O)Nc2ccc(Cl)c(C(F)(F)F)c2)C1=O,inconclusive: 9.91%,
C=CCn1nc([N+](=O)[O-])nc1Sc1cccc2cccnc12,inconclusive: 2.38%,
CCCCc1nc(NCCNC(=O)c2ccccc2)c(C#N)c2c1CSC(C)(C)C2,inconclusive: -28.2%,
CC(C)(C)n1nc2c(c1NC(=O)c1cc3ccccc3o1)CS(=O)(=O)C2,inconclusive: -2.21%,
COCc1cc(C)n(CC(=O)N/N=C/c2ccc(-c3ccc(Cl)c(C(=O)O)c3)o2)c(=O)c1C#N,inconclusive: -5.23%,
O=C(/C=C\c1cn(-c2ccccc2)nc1-c1ccc2c(c1)OCCO2)N1CCOCC1,inactive,
COC(=O)c1cc(O)cc(OC)c1C(=O)c1c(O)cc(C)cc1O,,"inconclusive: 25.1 µM [falling, single point]"
Cc1ccc(N(C)S(=O)(=O)c2cccc(C(=O)Nc3nc4ccccc4[nH]3)c2)cc1,inconclusive: -2.82%,
Nc1cc(C(F)(F)F)ccc1OCC1CCCO1 (centres undefined),inactive,
O=C1NC2(CCCCC2)Oc2ccccc21,inconclusive: 6.66%,
O=C(C[n+]1ccc(C(=O)c2ccccc2)cc1)Nc1ccccc1OC(F)F,inactive,
O=C(O)COc1ccc2occ(C(=O)c3ccccc3)c2c1,inactive,
Cc1ccc(OCCCC(=O)ON=C(N)c2ccccc2C)cc1,inactive,

# Ordered by count of non-hydrogen atoms (descending): part of the list above.
Compound,"activity change, negative = inhibition",Potency
O=C(CSC1=Nc2ccccc2C2=NC(c3ccccc3)C(=O)N12)NC1CCCCC1 (centres undefined),inconclusive: 8.02%,
CCCCc1nc(NCCNC(=O)c2ccccc2)c(C#N)c2c1CSC(C)(C)C2,inconclusive: -28.2%,
O=C(O)COc1ccc2occ(C(=O)c3ccccc3)c2c1,inactive,

# Further results.

Compound,"activity change, negative = inhibition",Potency
CCOc1ncccc1C(=O)OCC(=O)Nc1ccc(C(N)=O)cc1,inconclusive: 0.329%,
COc1ccc(-c2c[n+]3c(n2-c2ccc(C)cc2)CCCCC3)cc1,inconclusive: 13.1%,
COc1ccccc1N(C(=O)c1snc(C(N)=O)c1N)C(C(=O)NC1CCCC1)c1ccc2ncccc2c1 (centres undefined),inactive,
Cc1nc2ccc(NC(=O)c3ccco3)cc2nc1C,inconclusive: -22.6%,
Cc1ccc(NC(=O)C(=O)NNC(=O)c2ccccc2C)cc1Cl,,"inconclusive: 20 µM [falling, single point]"
NC(=S)N/N=C/c1ccc(/C=N/NC(N)=S)cc1,inactive,
c1nc(NC2CCCCC2)c2[nH]cnc2n1,,"inconclusive: 20.6 µM [falling, partial curve]"
COc1ccc(-c2oc3cccnc3c2C#CC2(O)CCCCC2)cc1,inactive,
CCCN(CC#CC(O)(c1ccccc1)c1cccnc1)CCC (centres undefined),inconclusive: 1.28%,
CCN(CC)C1CCN(C(=O)c2ccc(OC3CCN(CCc4ccccc4)CC3)cc2)C1 (centres undefined),inconclusive: -2.08%,
O=c1[nH]c(-c2ccco2)nc2sc3c(c12)CCCC3,inconclusive: -4%,
COc1ccc(OC)c(C2=NO[C@@H]3C(=O)N(c4cc(Cl)ccc4OC)C(=O)[C@H]23)c1,inconclusive: -7.13%,
O=C(CCN1C(=O)CSc2ccccc21)Nc1ccc(OC(F)(F)F)cc1,inconclusive: 2.92%,
COc1ccc(-c2cn(Cc3ccc4ccccc4c3)nn2)cc1,inactive,
Cc1c(C)n(C(=O)CSc2nc3ccccc3[nH]2)c2ccccc12,,"inconclusive: 32.6 µM [falling, single point]"
CN(C)S(=O)(=O)N1CCN(CC(=O)Nc2cc(Cl)ccc2Cl)CC1,inactive,
CCC(C(=O)O)n1c2ccccc2c2cn[nH]c(=O)c21 (centres undefined),inactive,
CCOC(=O)c1c(CSCc2ccccc2)oc2ccc(O)c(CN(C)C)c12,inconclusive: -13.7%,
O=C(NC1C2CC3CC(C2)CC1C3)c1ccc(N2CCNCC2)c([N+](=O)[O-])c1 (centres undefined),inconclusive: 1.77%,
COc1cccc(C(=O)OCC(=O)c2c(N)n(C)c(=O)n(C)c2=O)c1,inconclusive: -9.53%,
Cc1cccc(NC(=O)NNC(=O)c2nn(C)cc2Br)c1,inconclusive: -15.8%,

# 5 entries picked at random from those above, as already listed:
Compound,"activity change, negative = inhibition",Potency
COc1ccc(-c2oc3cccnc3c2C#CC2(O)CCCCC2)cc1,inactive,
O=C(NC1C2CC3CC(C2)CC1C3)c1ccc(N2CCNCC2)c([N+](=O)[O-])c1 (centres undefined),inconclusive: 1.77%,
CCOc1ncccc1C(=O)OCC(=O)Nc1ccc(C(N)=O)cc1,inconclusive: 0.329%,
CCC(C(=O)O)n1c2ccccc2c2cn[nH]c(=O)c21 (centres undefined),inactive,
COc1cccc(C(=O)OCC(=O)c2c(N)n(C)c(=O)n(C)c2=O)c1,inconclusive: -9.53%,

# Additional entries.

Compound,"activity change, negative = inhibition",Potency
CCOC(=O)C1CCN(c2nc3ccccc3nc2C(C#N)C(=O)NCCc2ccccc2)CC1 (centres undefined),,"inconclusive: 35.5 µM [falling, single point]"
O=C1C2ON(c3ccc(Cl)cc3)C(c3ccco3)C2C(=O)N1c1ccccc1 (centres undefined),inconclusive: -15.5%,
CC(C)NC(=O)Nc1cccc2c1O[C@H](CN(C)C(=O)NC1CCCCC1)[C@@H](C)CN([C@H](C)CO)C2=O,inconclusive: -1%,
CCCc1cc(=O)n2c(nc3ccccc32)[nH]1,,"inconclusive: 16.4 µM [falling, partial curve]"
COc1ccc(OC)c(NC(=O)CSc2ccc(-c3ccco3)nn2)c1,inconclusive: 3.46%,
O=C(Nc1ncn[nH]1)c1cccc(F)c1,inconclusive: 3.5%,
CCn1c(SCC(=O)N2CCCCCC2)nc2ccccc2c1=O,inconclusive: 9.49%,
CC(/C=C1\N=C(SCc2ccccc2)SC1=O)=C\c1ccccc1,inconclusive: 5.84%,
CC(=O)N1CCN(c2ccccc2NC(=O)COc2ccc(Br)cc2)CC1,,"inconclusive: 25.1 µM [falling, partial curve, poor fit]"
O=C(Nc1nnc(C2CC2)s1)c1cncc(Br)c1,,"inconclusive: 18.4 µM [falling, single point]"
CC(C)(C)c1ccc(Cn2nnc3c(=O)[nH]c(C4CCCN(C(=O)c5cccs5)C4)nc32)cc1 (centres undefined),inconclusive: -0.015%,
Cc1[nH]nc2c1C(C(C)c1ccccc1)C(C#N)=C(N)O2 (centres undefined),,"inconclusive: 20 µM [falling, single point]"
COc1ccc(C2/C=C\CN(S(=O)(=O)c3ccc(C)cc3)CC(=O)N2Cc2cccc(F)c2)cc1 (centres undefined),inconclusive: -2.28%,
COc1cc2c(cc1OC)C(=O)N1[C@H]3c4cc(Cl)ccc4OC[C@@H]3[C@H](c3ccccc3)[C@]1(C)C(=O)N2,inconclusive: 2.19%,
COc1ccc2c3c(cccc13)C(=O)N(O)C2=O,,"inconclusive: 16.4 µM [falling, partial curve]"
COc1cc2c(cc1OC)CN(C(=O)Nc1ccccc1Cl)CC2,,"inconclusive: 10 µM [falling, partial curve]"
NS(=O)(=O)c1ccc(NN=C2CCN(Cc3ccccc3)CC2)c([N+](=O)[O-])c1,,"inconclusive: 35.5 µM [falling, single point]"
CC(NC(=O)c1ccccc1NC(=O)CN1CCc2ccccc2C1)c1ccccc1 (centres undefined),inconclusive: 8.63%,
COc1cccc(C(=O)NCCS(=O)(=O)NCCc2ccc(OC)c(OC)c2)c1,inconclusive: -25.5%,
O=C(CSc1nnc(-c2ccc(O)cc2)o1)c1ccc(Br)cc1,inconclusive: -0.597%,
C[C@H](NC(=O)c1nc[nH]c1C(=O)N[C@@H](C)c1ccccc1)c1ccccc1,inactive,

Compound,"activity change, negative = inhibition",Potency
CC1Cc2ccccc2N1c1ncnc2c1nnn2Cc1ccccc1 (centres undefined),inconclusive: 2.08%,
Cc1ccc(C)c(CNc2ccc(S(=O)(=O)N3CCCCC3)cc2)c1,inactive,
COc1ccc(CCN2CC(C(=O)NCC(c3ccccc3)N(C)C)CC2=O)cc1OC (centres undefined),inactive,
COc1ccc(CCNC(=O)c2nn(C)c3c2CS(=O)(=O)c2ccccc2-3)cc1OC,inactive,
CC(=O)OCC(=O)Nc1ccc(N=Nc2ccccc2)cc1,,"inconclusive: 11.6 µM [falling, partial curve, poor fit]"
COCCSc1ccccc1C(=O)Nc1cc(C)ccn1,inconclusive: -0.404%,
Cc1cc(NC(=O)CN2C(=O)NC(C)(c3ccccc3)C2=O)no1 (centres undefined),inconclusive: 19%,
CN(CCCNC(=O)CSc1cc(=O)n(C)c2cc(Cl)ccc12)Cc1ccccc1,,"inconclusive: 35.5 µM [falling, single point]"
COc1cccc(/C=N/Nc2nc3ccccc3n3cnnc23)c1,,"inconclusive: 9.2 µM [falling, partial curve]"
Cn1nc(C(C)(C)C)c([N+](=O)[O-])c1C(N)=O,inconclusive: 4.36%,
CC(C)(Oc1ccc(Cl)cc1)C(=O)N1CCN(c2ccccn2)CC1,inconclusive: 14.3%,
Cn1nc(C(C)(C)C)cc1NC(=O)Nc1ccc(F)cc1F,inconclusive: 0.938%,
FC(F)(F)c1cc(NCc2cccs2)n2ncnc2n1,inconclusive: 13.7%,
CCCCCCSc1cc(-c2nc3ccc(C)cn3c2NCCCC)ccc1OC,inactive,
COc1cc(CCCN2CCNC[C@H]2Cc2ccc(O)cc2)cc(OC)c1OC,inactive,
CC1CN(Cc2csc(-c3ccc(Cl)cc3)n2)CC(C)O1 (centres undefined),inconclusive: 5%,
O=C(CSc1cnc2ccccc2n1)NC1CCCC1,inconclusive: 2.29%,
O=C(CNS(=O)(=O)c1ccc(Cl)cc1)N1CCN(c2ccc(F)cc2)CC1,inactive,
COCCNc1c([N+](=O)[O-])c(=O)n(-c2ccccc2)c2ccccc12,inactive,
O=C(NCc1ccccc1Cl)C1CCC(CNc2c(N3CCOCC3)c(=O)c2=O)CC1 (centres undefined),inconclusive: 8.57%,
Cc1ccccc1NC(=O)C[n+]1cc(-c2ccccc2)n2c1CCC2,inactive,
